{"source": "PubChem BioAssay AID1508597 | Cure First | 2020", "screen": "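Genes whose silencing sensitises or protects ovarian cancer cells against rucaparib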 (primary screen)", "cell system": "human ovarian carcinoma lines grown from tumours: OCI-P5x (papillary serous) and OCI-C5x (clear cell)", "reagent": "siRNA pool against human genes, 1.25 pmol siRNA per well", "duration": "72 h or 96 h, depending on the cell culture", "challenge": "rucaparib 20 µM (about IC30) or vehicle, present until read-out", "rucaparib or vehicle": "Rucaparib", "cell line": "OCI-P5x (serous)", "detection": "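Luminescent ATP-based viability assay read 72 or 96 h after transfection, depending on culture, given as normalised percent viability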", "direction": "viability, normalised: higher = more viable cells remaining", "call rule": "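a well counts as a hit if its normalised viability is under 80 percent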", "calls": "active = viability under 80%; inactive = viability 80% or more", "note": "Shown is a random part of the about 2,100 reagents, under one of the conditions tested. 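Calls flag viability under 80% in either arm, not effects specific to rucaparib; the reference for percent is not stated.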 No sequences are given here. Not stated in the record: the 100% reference."}
{"target gene": "WDR77", "technical replicate": "1", "viability, normalised (%)": 35.9, "outcome": "active"}
{"target gene": "WDR77", "technical replicate": "2", "viability, normalised (%)": 49.1, "outcome": "active"}
{"target gene": "WDR77", "technical replicate": "3", "viability, normalised (%)": 54.1, "outcome": "active"}
{"target gene": "PELP1", "technical replicate": "1", "viability, normalised (%)": 74, "outcome": "active"}
{"target gene": "PELP1", "technical replicate": "2", "viability, normalised (%)": 73.4, "outcome": "active"}
{"target gene": "PELP1", "technical replicate": "3", "viability, normalised (%)": 67.6, "outcome": "active"}

2 successive records from above:
{"target gene": "WDR77", "technical replicate": "3", "viability, normalised (%)": 54.1, "outcome": "active"}
{"target gene": "PELP1", "technical replicate": "1", "viability, normalised (%)": 74, "outcome": "active"}

The listing continues.
{"target gene": "CUL3", "technical replicate": "1", "viability, normalised (%)": 84.3, "outcome": "inactive"}
{"target gene": "CUL3", "technical replicate": "2", "viability, normalised (%)": 81.8, "outcome": "inactive"}
{"target gene": "CUL3", "technical replicate": "3", "viability, normalised (%)": 83.8, "outcome": "inactive"}
{"target gene": "IGF2R", "technical replicate": "1", "viability, normalised (%)": 34.7, "outcome": "active"}
{"target gene": "IGF2R", "technical replicate": "2", "viability, normalised (%)": 37.8, "outcome": "active"}
{"target gene": "IGF2R", "technical replicate": "3", "viability, normalised (%)": 36.2, "outcome": "active"}
